The source of these data is CN109021107A.

For the experiment, the target named is recombinant monkey PD-L1 (monkey). As to the kind of experiment: ELISA, coated recombinant protein, antibody 1ug/ml, anti-human IgG-HRP. A general note: An ELISA detects its analyte on a solid surface through an enzyme-linked reagent.

Results are given in words; binding and its absence hold for the method and conditions named. Binding can be weak; no strength is given.

B1: HUL02 (antibody, human IgG1, kappa, N297A, V domains shown)
VH: EVQLQESGPGLVKPSQTLSLTCTVSGDSFSSGYWNWIRQHPGKGLEYIGYVSYTGSTYYIPSLKSRVTISRDTSKNQFSLKLSSVTAADTAVYYCAGYRDWLHGYFDYWGQGTTVTVSS
VL: DIQMTQSPSSLSASVGDRVTITCKASQNVMDNVAWYQQKPGKAPKRLIYSASYRFSGVPSRFSGSGSGTEFTLTISSLQPEDFATYYCQQYNGYPLTFGQGTKLEIKR
With B1, the binding entry is on record as “binds”.
